Results: patent US10463644B2, “Uses of sesquiterpene lactone compounds and their derivatives in drugs preparation” (ACCENDATECH, priority 2013, dated 2019)
Some of these results come from one statement about several compounds together.

Key:
Type in all cases: in vivo, rat
Conditions in all cases: both large dose group and small dose group
[1] = tested on: TNF-α secreted by synoviocyte; assay: Content of TNF-α in culture supernatant of synoviocyte of RA model rats given test compound
Excerpt: (§1) Take Compound 1-50 prepared as per the method according to the present invention and employ the method provided in Reference to prepare model, group drugs and prepare culture supernatant of rat synoviocyte.
(§2) Employ the method provided in Reference to investigate the effects of the test compounds on the synoviocyte to secrete TNF-α and PGE2. Employ the method provided in Reference to investigate the effects of the test compounds on the synoviocyte to secrete IL-1β.
(§3) The experimental data of the test compound 1-50 at a dose of 30 mg/kg.2d as well as the normal control and NaCl group are as follows: […]

[2] = tested on: IL-1β secreted by synoviocyte; assay: Content of IL-1β in culture supernatant of synoviocyte of RA model rats given test compound
Excerpt: as §1, §2, §3

[3] = tested on: PGE2 secreted by synoviocyte; assay: Content of PGE2 in culture supernatant of synoviocyte of RA model rats given test compound
Excerpt: as §1, §2, §3

C=C1C(=O)OC2C1CCC(C)=C1CCC(C)(OC(=O)CCc3ccccc3)C12 (stereo not drawn) [Compound 20]
obviously reduce: effect on content of TNF-α secreted by synoviocyte [1] | effect on content of IL-1β secreted by synoviocyte [2] | effect on content of PGE2 secreted by synoviocyte [3]

C=C1C(=O)OC2C1CCC(C)=C1CCC(C)(OC(=O)CCC)C12 (stereo not drawn) [Compound 4]
obviously reduce: effect on content of TNF-α secreted by synoviocyte [1] | effect on content of IL-1β secreted by synoviocyte [2] | effect on content of PGE2 secreted by synoviocyte [3]

C=C1C(=O)O[C@@H]2[C@H]3C(C)=CC[C@@]34O[C@@]4(C)CC[C@@H]12 [Compound 50]
obviously reduce: effect on content of TNF-α secreted by synoviocyte [1] | effect on content of IL-1β secreted by synoviocyte [2] | effect on content of PGE2 secreted by synoviocyte [3]

C=C1C(=O)OC2C1CCC(C)=C1CCC(C)(OC(=O)C(Cl)Cl)C12 (stereo not drawn) [Compound 10]
obviously reduce: effect on content of TNF-α secreted by synoviocyte [1] | effect on content of IL-1β secreted by synoviocyte [2] | effect on content of PGE2 secreted by synoviocyte [3]

C=C1C(=O)OC2C1CCC(C)=C1CCC(C)(OC(=O)CC(C)C)C12 (stereo not drawn) [Compound 7]
obviously reduce: effect on content of TNF-α secreted by synoviocyte [1] | effect on content of IL-1β secreted by synoviocyte [2] | effect on content of PGE2 secreted by synoviocyte [3]

C=CCCC(=O)OC1(C)CCC2=C(C)CCC3C(=C)C(=O)OC3C21 (stereo not drawn) [Compound 18]
obviously reduce: effect on content of TNF-α secreted by synoviocyte [1] | effect on content of IL-1β secreted by synoviocyte [2] | effect on content of PGE2 secreted by synoviocyte [3]

C=C1C(=O)OC2C1CCC(C)=C1CCC(C)(OC(=O)C(C)C)C12 (stereo not drawn) [Compound 6]
obviously reduce: effect on content of TNF-α secreted by synoviocyte [1] | effect on content of IL-1β secreted by synoviocyte [2] | effect on content of PGE2 secreted by synoviocyte [3]

C=C1C(=O)OC2C1CCC(C)=C1CCC(C)(OC(=O)CC)C12 (stereo not drawn) [Compound 3]
obviously reduce: effect on content of TNF-α secreted by synoviocyte [1] | effect on content of IL-1β secreted by synoviocyte [2] | effect on content of PGE2 secreted by synoviocyte [3]

C=C1C(=O)OC2C1CCC(C)=C1CCC(C)(OC(=O)CCCCBr)C12 (stereo not drawn) [Compound 12]
obviously reduce: effect on content of TNF-α secreted by synoviocyte [1] | effect on content of IL-1β secreted by synoviocyte [2] | effect on content of PGE2 secreted by synoviocyte [3]

C=C1C(=O)OC2C1CCC(C)=C1CCC(C)(OC(=O)C=C(C)C)C12 (stereo not drawn) [Compound 16]
obviously reduce: effect on content of TNF-α secreted by synoviocyte [1] | effect on content of IL-1β secreted by synoviocyte [2] | effect on content of PGE2 secreted by synoviocyte [3]

C#CCCCC(=O)O[C@]1(C)CCC2=C(C)CC[C@H]3C(=C)C(=O)O[C@@H]3[C@H]21 [Compound 19]
obviously reduce: effect on content of TNF-α secreted by synoviocyte [1] | effect on content of IL-1β secreted by synoviocyte [2] | effect on content of PGE2 secreted by synoviocyte [3]

C=C1C(=O)OC2C1CCC(C)=C1CCC(C)(OC(=O)CCl)C12 (stereo not drawn) [Compound 9]
obviously reduce: effect on content of TNF-α secreted by synoviocyte [1] | effect on content of IL-1β secreted by synoviocyte [2] | effect on content of PGE2 secreted by synoviocyte [3]

C=C1C(=O)OC2C1CCC(C)=C1CCC(C)(OC(=O)C=CC)C12 (stereo not drawn) [Compound 15]
obviously reduce: effect on content of TNF-α secreted by synoviocyte [1] | effect on content of IL-1β secreted by synoviocyte [2] | effect on content of PGE2 secreted by synoviocyte [3]

C=C1C(=O)OC2C1CCC(C)=C1CCC(C)(OC(=O)C=Cc3ccccc3)C12 (stereo not drawn) [Compound 17]
obviously reduce: effect on content of TNF-α secreted by synoviocyte [1] | effect on content of IL-1β secreted by synoviocyte [2] | effect on content of PGE2 secreted by synoviocyte [3]
